Assay results as given in patent publication US20180064679A1, “METHOD FOR TREATING CANCER BASED ON LEVEL OF GLUCOCORTICOID RECEPTOR” (Abraxis BioScience, LLC, priority 2015, published 2018).
Entries after “also recorded” stand apart in the source; their conditions may differ. At least one compound was matched to its structure with a doubt left.

Columns and labels:
[1] = tested on: phosphorylated c-Jun (Ser 73); assay: Western blot of phosphorylated c-Jun (Ser 73) in H1755 cells; type: cell-based, human; conditions: 100 nM DEX and 100 nM PTX
Protocol: (§1) H1755 and H522 cells were cultured using RPMI media that was charcoal-filtered media to remove steroids. Cell samples received one of the following treatments: vehicle control (0.1% EtOH for DEX vehicle control or 0.1% DMSO for PTX vehicle control), 100 nM DEX, 100 nM PTX, or 100 nM DEX and 100 nM PTX. At 1 hour, 4 hours, or 24 hours after drug administration, cell samples were harvested and mRNA levels of MKP-1 and SGK1 were measured via quantitative real-time polymerase chain reaction (qRT-PGR). […]
(§2) In addition to measuring MKP-1 and SGK1 mRNA expression, a series of proteins (and their phosphorylation status) involved in stress pathway signaling were evaluated via Western blot to measure changes following treatment with DEX, PTX, or DEX and PTX. JNK1 was measured after 2 hours of treatment, P c-Jun, c-Jun, pMPK1, and SGK1 were measured after 4 hours of treatment, and other measurements were after 24 hours of treatment. […]

MDA-MB-231 cells = assay: caspase-3/7 activation (apoptosis) assay in MDA-MB-231 cells; type: cell-based; conditions: 100 nM DEX 30 minutes prior to PTX (333.33 nM PTX in FIG. 1C)
Protocol: MDA-MB-231 cells were cultured using Eagle's minimum essential medium (EMEM) with 10% fetal bovine serum (FBS). FBS was charcoal-filtered to remove endogenous steroids. Cells were plated at 5000 cell per well and treated 24 hours after plating. PTX doses of 3000, 1000, 333.3, 111.1, 37.0, 12.3, 4.1, 1.4, 0.5, and 0 nM were evaluated. MDA-MB-231 cell samples treated with DEX received 100 nM DEX 30 minutes prior to administration of PTX or a vehicle control. The vehicle control for DEX was 0.1% ethanol, final concentration after addition. The vehicle control for PTX was 0.1% DMSO, final concentration after addition. Additionally, during PTX and/or DEX drug dosing, a caspase-3/7 activation reagent was added to the cell samples, for example, Caspase-3/7 reagent (Essen BioScience, Ann Arbor, Mich.; Catalog No. 4440). Specifically, the CELLPLAYER™ Kinetic Caspase-3/7 activation assay reagents (Essen BioScience, Ann Arbor, Mich.) were used to detect caspase-3/7 activation.
At time points following PTX administration (e.g., roughly every 3 hours) the activation of the caspase-3/7 reagent was measured with, for example, an INCUCYTE™ FLR (Essen BioScience, Ann Arbor, Mich.). Activation of caspase-3/7 is indicative of an apoptotic and/or an apoptosing cell. All concentrations of PTX, both with and without DEX, were evaluated in triplicate.

phosphorylated BCL2 = assay: Western blot of phosphorylated BCL2 in H1755 cells; type: cell-based, human; conditions: 100 nM DEX and 100 nM PTX, 24 hours
Protocol: (§3) H1755 and H522 cells were cultured using RPMI media that was charcoal-filtered media to remove steroids. Cell samples received one of the following treatments: vehicle control (0.1% EtOH for DEX vehicle control or 0.1% DMSO for PTX vehicle control), 100 nM DEX, 100 nM PTX, or 100 nM DEX and 100 nM PTX. At 1 hour, 4 hours, or 24 hours after drug administration, cell samples were harvested and mRNA levels of MKP-1 and SGK1 were measured via quantitative real-time polymerase chain reaction (qRT-PGR). Western blot analysis of GR, phosphorylated JNK1 (P-JNK1; phosphorylation at Thr 183 and Tyr 185), JNK1, phosphorylated c-Jun (P c-Jun; phosphorylation at Ser 73 or Ser 63), c-Jun, phosphorylated MKP1 (pMKP1; phosphorylated at Ser 359), SG1, phosphorylated MCL-1 (pMCL-1; phosphorylated at Ser 64), MCL-1, phosphorylated BCL2 (pBC1,2; phosphorylated at Ser 70), BCL2, BCLXL, cleaved caspase-3, and GAPDH (for purposes of normalization) was performed following treatment with either a vehicle control (0.1% EtOH for DEX vehicle control or 0.1% DMSO for PTX vehicle control), 100 nM DEX, 100 nM PTX, or 100 nM DEX and 100 nM PTX.
(§4) Furthermore, pro-survival markers, MCL1, BCL2, and BCLXL, were measured by Western blot to evaluate changes following treatment with DEX, PTX, or DEX and PTX. MCL1, BCL2, and BCLXL inhibit apoptosis by blocking activation of caspases, such as, caspase-3. […]

[2] = tested on: phosphorylated c-Jun (Ser 73); assay: Western blot of phosphorylated c-Jun (Ser 73) in H522 cells; type: cell-based; conditions: 100 nM DEX and 100 nM PTX
Protocol: as §1, §2

Pac03.27 cell line = assay: caspase-3/7 activation assay in Pac03.27 cell line; type: cell-based; conditions: 100 nM DEX, 100 nM PTX
[3] = tested on: 7 tested GR-positive human cell lines; assay: gene expression in GR-positive human cancer cell lines under DEX treatment; type: cell-based; conditions: 100 nM DEX for 24 hours
CAL120 cell line = assay: caspase-3/7 activation assay in CAL120 cell line; type: cell-based, human; conditions: 100 nM DEX, 100 nM PTX
cleaved caspase-3 [4] = assay: Western blot of cleaved caspase-3 in H1755 cells; type: cell-based, human; conditions: 100 nM DEX and 100 nM PTX, 24 hours
Protocol: as §3, §4

AsPC1 cell line = assay: caspase-3/7 activation assay in AsPC1 cell line; type: cell-based, human; conditions: 100 nM DEX, 100 nM PTX
[5] = tested on: H1755 cells following knockdown of GR expression; assay: caspase-3/7 activation in H1755 cells with shRNA knockdown of GR; type: cell-based, human; conditions: 100 nM DEX, 100 nM PTX, compared with H1755 cells without knockdown
CAL51 cell line = assay: caspase-3/7 activation assay in CAL51 cell line; type: cell-based; conditions: CAL51 (minimal level of GR), data not shown
H1755 = assay: RT2 Profiler PCR Arrays, 357 genes, in H1755 cells; type: cell-based, human; conditions: 100 nM DEX for 24 hours, 357 genes from 5 pathways
cleaved caspase-3 [6] = assay: Western blot of cleaved caspase-3 in H522 cells; type: cell-based; conditions: 100 nM DEX and 100 nM PTX, 24 hours
Protocol: as §3, §4

SGK1 = assay: qRT-PCR of SGK1 mRNA in H522 cells; conditions: 100 nM DEX, all time points
MKP-1 = assay: qRT-PCR of MKP-1 mRNA in H522 cells; conditions: 100 nM DEX, all time points
MAP TAU = assay: Western blot of MAP TAU in H522 cells; type: cell-based; conditions: 100 nM DEX, 4 or 24 hours
H522 cell line = assay: caspase-3/7 activation assay in H522 cell line; type: cell-based; conditions: 100 nM DEX, 100 nM PTX, H522 (minimal level of GR)
MM231 cell line = assay: caspase-3/7 activation assay in MM231 cell line; type: cell-based; conditions: 100 nM DEX, 100 nM PTX
[7] = tested on: ERK, phosphorylated ERK, p38, and phosphorylated p38; assay: Western blot of MAPK pathway proteins in H1755 and H522 cells; type: cell-based; conditions: 100 nM DEX and/or 100 nM PTX, 4 hours
Protocol: H1755 and H522 cells were analyzed by Western blot at 4 hours following administration of a vehicle control (0.1% EtOH for DEX vehicle control or 0.1% DMSO for PTX vehicle control), 100 nM DEX, 100 nM PTX, or 100 nM DEX and 100 nM PTX.

BT549 cell line = assay: caspase-3/7 activation assay in BT549 cell line; type: cell-based, human; conditions: 100 nM DEX, 100 nM PTX
H1755 cells = assay: caspase-3/7 activation (apoptosis) assay in H1755 cells; type: cell-based, human
Protocol: H1755 cells were cultured using EMEM with 10% FBS. FBS was charcoal-filtered to remove endogenous steroids. Cells were plated at 5000 cell per well and treated 24 hours after plating. H1755 cell samples treated with DEX received DEX 30 minutes prior to administration of PTX or a vehicle control. Vehicle controls are the same as those discussed in Example 1. Additionally, during PTX and/or DEX drug dosing, a caspase-3/7 activation reagent was added to the cell samples, for example, Caspase-3/7 reagent (Essen BioScience, Ann Arbor, Mich; Catalog No. 4440). Specifically, the CELLPLAYER™ Kinetic Caspase-3/7 activation assay reagents (Essen BioScience, Ann Arbor, Mich.) were used to detect caspase-3/7 activation.
At time points following PTX administration the activation of the caspase-3/7 reagent was measured with, for example, an INCUCYTE™ FLR (Essen BioScience, Ann Arbor, Mich.). […] Apoptotic or apoptosing H1755 cells (caspase-3/7 positive cells) are indicated in white, as measured by caspase-3/7 activation (FIGS. 3A-3D).
To determine the EC50 of DEX in H1755 cells, a series of PTX concentrations were evaluated for caspase-3/7 activation across a series of DEX concentrations. […]
H1755 cell samples were treated with 0, 0.43, 1.3, 4.12, 12.3, 37, 111, 333, 1000, or 3000 nM PTX. […] At time points following drug administration, caspase-3/7 activation was measured as discussed in Example 1.

A549 cell line = assay: caspase-3/7 activation assay in A549 cell line; type: cell-based, human; conditions: 100 nM DEX, 100 nM PTX
HS766t cell line = assay: caspase-3/7 activation assay in HS766t cell line; type: cell-based, human; conditions: 100 nM DEX, 100 nM PTX

C[C@@H]1C[C@H]2[C@@H]3CCC4=CC(=O)C=C[C@]4(C)[C@@]3(F)[C@@H](O)C[C@]2(C)[C@@]1(O)C(=O)CO [DEX, dexamethasone]
DEX effect on PTX-induced phosphorylation of c-Jun (Ser 73) [1]: inhibited
effect of DEX on PTX-induced apoptosis (MDA-MB-231 cells): inhibits
phosphorylation of BCL2, treatment with PTX and DEX (phosphorylated BCL2): decreased
DEX effect on PTX-induced phosphorylation of c-Jun (Ser 73) [2]: not H522 cells
DEX antagonism of PTX-induced apoptosis (Pac03.27 cell line): observed
expression of FN1, SERPINE1, SLUG, RGS2, IL1R1, JAK2, CEBPD, KRT7, MME and MCL [3]: consistently upregulated
expression of IL6, LIF, and TNFRSF11B [3]: consistently downregulated
DEX antagonism of PTX-induced apoptosis (CAL120 cell line): observed
presence of cleaved caspase-3 on co-administration of PTX and DEX (cleaved caspase-3 [4]): abolished
DEX antagonism of PTX-induced apoptosis (AsPC1 cell line): observed
level of DEX-mediated inhibition of PTX-induced apoptosis following GR knockdown [5]: reduced
DEX antagonism of PTX-induced apoptosis (CAL51 cell line): not observed
genes changed in response to the DEX treatment (H1755): 46 genes were found to show at least two fold change
presence of cleaved caspase-3 on co-administration of PTX and DEX (cleaved caspase-3 [6]): not in H522 cells
up-regulation of SGK1 mRNA expression by DEX (SGK1): not in H522 cells
up-regulation of MKP-1 mRNA expression by DEX (MKP-1): not in H522 cells
DEX-induced upregulation of MAP TAU (MAP TAU): not observed
DEX antagonism of PTX-induced apoptosis (H522 cell line): not observed
DEX antagonism of PTX-induced apoptosis (MM231 cell line): observed
change of MAPK pathway proteins and MAPK signaling mechanisms [7]: minimally changed
DEX antagonism of PTX-induced apoptosis (BT549 cell line): observed
DEX antagonism of PTX-induced apoptosis (H1755 cells; 100 nM DEX with PTX, H1755 cells): antagonized; also recorded: observed; also recorded: inhibited
EC50 of anti-apoptotic effect of DEX in the H1755 cell line, compared with DEX levels after standard pre-medication (H1755 cells; DEX 0-100 nM at each PTX concentration 0-3000 nM): below the measured blood levels and predicted tissue levels of DEX
DEX antagonism of PTX-induced apoptosis (A549 cell line): observed
DEX antagonism of PTX-induced apoptosis (HS766t cell line): observed
